US5523223A, “Ketoester reductase for conversion of keto acid esters to optically active hydroxy acid esters” (priority 1992, dated 1996)
For at least one compound, name, drawing or mass did not settle the structure.

Columns and labels:
[1] = system: KERed from C. parapsilosis; test: Inhibition study of the KERed (influence of metal cations and reagents); type: biochemical, Candida parapsilosis; conditions: for Residual Activity: 35 mM 5-oxohexanoic acid ethyl ester, 0.2 mM NADH, pH 7.9
Description: For the following investigation, partially purified enzyme (after Q-sepharose chromatography, 67-times enrichment) was used. […]
5-oxohexanoic acid ethyl ester
TEA-NaOH-buffer, 0.1 M; pH 7.9
The influence of various metal cations and reagents upon the enzymatic activity was investigated in tests in which the test preparation described under example 3.B was used.

[2] = system: KERed from R. erythropolis; test: Screening of crude extract for ketoester reductase activity (photometric NAD(P)H decrease); type: biochemical, Rhodococcus erythropolis; conditions: 0.2 mM NADH, 8 mM ketoester, TEA-NaOH buffer pH 7, mU/mg protein
Experimental: (§1) For screening collection strains of the DSM (German Collection of Microorganisms and Cell Cultures, Braunschweig) is cultured in the DSM recommended medium, the cell mass is harvested by centrifugation and disintegrated by wet milling. A permanent deposit of Candida parapsilosis DSM 70125 has been deposited on 29 Mar. 1979 in accordance with the requirements of the Budapest Treaty. The address of the depository is as follows: German Collection of Microorganisms and Cell Cultures, DSM-Mascheroder Weg 1B, Braunschweig, Germany. The supernatant served as the enzyme source (crude extract) and was investigated for ketoester reductase activity. The test was carried out photometrically and the test mixture contained the following components.
(§2) 0.1M triethanoleamine (TEA)-NaOH-Buffer, pH 7
(§3) Limited amounts of the crude extract.
(§4) The NAD(P)H-decrease at 334nm over a period of 1 minute was followed: For activity calculation, an absorption coefficient of […] was used. […] One U (unit) corresponds to the consumption and conversion of 1 μmole of reduced coenzyme per minute.

KERed from Y. cellobiosa = test: as above; type: biochemical, Yarrowinia cellobiosa; conditions: 0.2 mM NADH, 8 mM ketoester, TEA-NaOH buffer pH 7, mU/mg protein
Experimental: as §1, §2, §3, §4

[3] = system: KERed from Candida parapsilosis; test: Kinetic characterization of the KERed; type: biochemical; conditions: partially purified enzyme
[4] = system: KERed from C. parapsilosis; test: Screening of crude extract for ketoester reductase activity (photometric NAD(P)H decrease); type: biochemical, Candida parapsilosis; conditions: 8 mM ketoester, TEA-NaOH buffer pH 7, mU/mg protein; for NADH dependent specific activity: 0.2 mM NADH; for NADPH-dependent specific activity: 0.2 mM NADPH
Experimental: as §1, §2, §3, §4

[5] = system: KERed from P. acidovorans; test: as above; type: biochemical, Pseudomonas acidovorans; conditions: 8 mM ketoester, TEA-NaOH buffer pH 7, mU/mg protein; for NADH dependent specific activity: 0.2 mM NADH
Experimental: as §1, §2, §3, §4

O=C(O)c1cc(SSc2ccc([N+](=O)[O-])c(C(=O)O)c2)ccc1[N+](=O)[O-] [5,5'-dithio-bis(2-nitrobenzoate)]
Residual Activity ([1]; compound 0.1 mM): 53% | Residual Activity ([1]; compound 1.0 mM): 0% | Influence on KERed activity (in words) ([1]; summary statements of the inhibition study): Strong inhibition

CCOC(=O)CCCC(C)=O [ABEE, Acetylbutyric acid ethyl ester]
NADH dependent specific activity [2]: 97.0 mU/mg | NADH dependent specific activity (KERed from Y. cellobiosa): 55.4 mU/mg | Km [3]: 890 µM | Vmax ([3]; referred to 2-butanone): 116% | NADH dependent specific activity [4]: 96.1 mU/mg | NADPH-dependent specific activity [4]: 4.5 mU/mg | NADH dependent specific activity [5]: 15.9 mU/mg

CC(=O)CCCC(=O)O [ABS, Acetylbutyric acid]
NADH dependent specific activity [4]: 16.4 mU/mg | NADPH-dependent specific activity [4]: 25.0 mU/mg | NADH dependent specific activity [5]: 9.1 mU/mg | NADPH-dependent specific activity ([5]; 0.2 mM NADPH): 3.5 mU/mg
